Laboratory results from the supplement of paper PMC7661543.
Differences between knockout arms are mostly noise.

System: SKBR3
Experiment: relative cell number vs DMSO control (72 h) (% of DMSO); higher = less growth inhibition (more cells)
Experimental: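 QMAP-Seq: a pool of 5 breast cancer cell lines (ZR-75-1, SKBR3, HCC-38, MDA-MB-231, BT-20), each carrying 12 doxycycline-inducible Cas9 sgRNA perturbations (11 knockouts plus non-targeting sgNT), was treated with compounds for 72 h at four 10-fold doses (10 nM-10 uM or 1 nM-1 uM range). Barcodes were amplified and sequenced, and cell number was interpolated from 293T spike-in standard curves. The result is expressed as % of the median of DMSO wells. Two biological replicates.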

Cc1ccc(C(=O)Cn2c3c(sc2=N)CCCC3)cc1 [PifithrinAlpha]
Details | relative cell number
sgRNA knockout: sgATF3, 10 nM | 107
sgRNA knockout: sgATF3, 100 nM | 107
sgRNA knockout: sgATF3, 1000 nM | 90.6
sgRNA knockout: sgATF3, 10000 nM | 97.9
sgRNA knockout: sgATF4, 10 nM | 78.9
sgRNA knockout: sgATF4, 100 nM | 105
sgRNA knockout: sgATF4, 1000 nM | 81.2
sgRNA knockout: sgATF4, 10000 nM | 85.9
sgRNA knockout: sgATF6, 10 nM | 91.5
sgRNA knockout: sgATF6, 100 nM | 71.7
sgRNA knockout: sgATF6, 1000 nM | 92.8
sgRNA knockout: sgATF6, 10000 nM | 67.4
sgRNA knockout: sgATG7, 10 nM | 109
sgRNA knockout: sgATG7, 100 nM | 85.1
sgRNA knockout: sgATG7, 1000 nM | 102
sgRNA knockout: sgATG7, 10000 nM | 92.7
sgRNA knockout: sgERN1, 10 nM | 103
sgRNA knockout: sgERN1, 100 nM | 86.2
sgRNA knockout: sgERN1, 1000 nM | 101
sgRNA knockout: sgERN1, 10000 nM | 77.8
sgRNA knockout: sgHSF1, 10 nM | 110
sgRNA knockout: sgHSF1, 100 nM | 86.4
sgRNA knockout: sgHSF1, 1000 nM | 79
sgRNA knockout: sgHSF1, 10000 nM | 83.9
sgRNA knockout: sgHSF2, 10 nM | 96.8
sgRNA knockout: sgHSF2, 100 nM | 94.2
sgRNA knockout: sgHSF2, 1000 nM | 81.5
sgRNA knockout: sgHSF2, 10000 nM | 78.1
sgRNA knockout: sgKEAP1, 10 nM | 87.3
sgRNA knockout: sgKEAP1, 100 nM | 103
sgRNA knockout: sgKEAP1, 1000 nM | 88
sgRNA knockout: sgKEAP1, 10000 nM | 85.5
sgRNA knockout: sgNFE2L2, 10 nM | 83.1
sgRNA knockout: sgNFE2L2, 100 nM | 80.4
sgRNA knockout: sgNFE2L2, 1000 nM | 102
sgRNA knockout: sgNFE2L2, 10000 nM | 84.1
sgRNA knockout: sgSLC35F2, 10 nM | 104
sgRNA knockout: sgSLC35F2, 100 nM | 94.9
sgRNA knockout: sgSLC35F2, 1000 nM | 90
sgRNA knockout: sgSLC35F2, 10000 nM | 76
sgRNA knockout: sgXBP1, 10 nM | 119
sgRNA knockout: sgXBP1, 100 nM | 82.5
sgRNA knockout: sgXBP1, 1000 nM | 94.2
sgRNA knockout: sgXBP1, 10000 nM | 77.5

CCc1c2c(nc3ccc(O)cc13)-c1cc3c(c(=O)n1C2)COC(=O)[C@]3(O)CC [SN38]
Details | relative cell number
sgRNA knockout: sgATF3, 1 nM | 90.9
sgRNA knockout: sgATF3, 10 nM | 54.5
sgRNA knockout: sgATF3, 100 nM | 16.5
sgRNA knockout: sgATF3, 1000 nM | 15
sgRNA knockout: sgATF4, 1 nM | 91.4
sgRNA knockout: sgATF4, 10 nM | 58.8
sgRNA knockout: sgATF4, 100 nM | 23.5
sgRNA knockout: sgATF4, 1000 nM | 17.25
sgRNA knockout: sgATF6, 1 nM | 104
sgRNA knockout: sgATF6, 10 nM | 51.8
sgRNA knockout: sgATF6, 100 nM | 23.5
sgRNA knockout: sgATF6, 1000 nM | 20.4
sgRNA knockout: sgATG7, 1 nM | 104
sgRNA knockout: sgATG7, 10 nM | 55.4
sgRNA knockout: sgATG7, 100 nM | 20.7
sgRNA knockout: sgATG7, 1000 nM | 15.1
sgRNA knockout: sgERN1, 1 nM | 83.5
sgRNA knockout: sgERN1, 10 nM | 51
sgRNA knockout: sgERN1, 100 nM | 22.9
sgRNA knockout: sgERN1, 1000 nM | 19.5
sgRNA knockout: sgHSF1, 1 nM | 85.3
sgRNA knockout: sgHSF1, 10 nM | 41.3
sgRNA knockout: sgHSF1, 100 nM | 24.9
sgRNA knockout: sgHSF1, 1000 nM | 21.6
sgRNA knockout: sgHSF2, 1 nM | 101
sgRNA knockout: sgHSF2, 10 nM | 52.6
sgRNA knockout: sgHSF2, 100 nM | 27.4
sgRNA knockout: sgHSF2, 1000 nM | 18.5
sgRNA knockout: sgKEAP1, 1 nM | 78.8
sgRNA knockout: sgKEAP1, 10 nM | 43.1
sgRNA knockout: sgKEAP1, 100 nM | 29.81
sgRNA knockout: sgKEAP1, 1000 nM | 18.3
sgRNA knockout: sgNFE2L2, 1 nM | 93.1
sgRNA knockout: sgNFE2L2, 10 nM | 39.5
sgRNA knockout: sgNFE2L2, 100 nM | 24
sgRNA knockout: sgNFE2L2, 1000 nM | 24.8
sgRNA knockout: sgSLC35F2, 1 nM | 79.9
sgRNA knockout: sgSLC35F2, 10 nM | 40.6
sgRNA knockout: sgSLC35F2, 100 nM | 20.2
sgRNA knockout: sgSLC35F2, 1000 nM | 18.8
sgRNA knockout: sgXBP1, 1 nM | 109
sgRNA knockout: sgXBP1, 10 nM | 41.8
sgRNA knockout: sgXBP1, 100 nM | 19.1
sgRNA knockout: sgXBP1, 1000 nM | 15.4

COc1nc(N)nc2c1ncn2[C@@H]1O[C@H](CO)[C@@H](O)[C@@H]1O [Nelarabine]
Details | relative cell number
sgRNA knockout: sgATF3, 10 nM | 117
sgRNA knockout: sgATF3, 100 nM | 97.3
sgRNA knockout: sgATF3, 1000 nM | 109
sgRNA knockout: sgATF3, 10000 nM | 102
sgRNA knockout: sgATF4, 10 nM | 106
sgRNA knockout: sgATF4, 100 nM | 98.7
sgRNA knockout: sgATF4, 1000 nM | 91.8
sgRNA knockout: sgATF4, 10000 nM | 93.7
sgRNA knockout: sgATF6, 10 nM | 104
sgRNA knockout: sgATF6, 100 nM | 81
sgRNA knockout: sgATF6, 1000 nM | 91.4
sgRNA knockout: sgATF6, 10000 nM | 95.7
sgRNA knockout: sgATG7, 10 nM | 93.8
sgRNA knockout: sgATG7, 100 nM | 90.2
sgRNA knockout: sgATG7, 1000 nM | 102
sgRNA knockout: sgATG7, 10000 nM | 93
sgRNA knockout: sgERN1, 10 nM | 131
sgRNA knockout: sgERN1, 100 nM | 97.5
sgRNA knockout: sgERN1, 1000 nM | 95.2
sgRNA knockout: sgERN1, 10000 nM | 92.3
sgRNA knockout: sgHSF1, 10 nM | 99.7
sgRNA knockout: sgHSF1, 100 nM | 92.33
sgRNA knockout: sgHSF1, 1000 nM | 97.4
sgRNA knockout: sgHSF1, 10000 nM | 117
sgRNA knockout: sgHSF2, 10 nM | 112.6
sgRNA knockout: sgHSF2, 100 nM | 100
sgRNA knockout: sgHSF2, 1000 nM | 86.3
sgRNA knockout: sgHSF2, 10000 nM | 81.2
sgRNA knockout: sgKEAP1, 10 nM | 114
sgRNA knockout: sgKEAP1, 100 nM | 79.1
sgRNA knockout: sgKEAP1, 1000 nM | 88.7
sgRNA knockout: sgKEAP1, 10000 nM | 122
sgRNA knockout: sgNFE2L2, 10 nM | 99.7
sgRNA knockout: sgNFE2L2, 100 nM | 96.2
sgRNA knockout: sgNFE2L2, 1000 nM | 94
sgRNA knockout: sgNFE2L2, 10000 nM | 93.8
sgRNA knockout: sgSLC35F2, 10 nM | 94.5
sgRNA knockout: sgSLC35F2, 100 nM | 97.6
sgRNA knockout: sgSLC35F2, 1000 nM | 104
sgRNA knockout: sgSLC35F2, 10000 nM | 109
sgRNA knockout: sgXBP1, 10 nM | 113
sgRNA knockout: sgXBP1, 100 nM | 98.2
sgRNA knockout: sgXBP1, 1000 nM | 87.7
sgRNA knockout: sgXBP1, 10000 nM | 106
